In paper PMC9570119:
No constants are given. Whether binding was seen depends on the method and setting. In cells and extracts the contact can be indirect. Some binding calls cover weakened binding; strength is not graded here. Sequences can lack the tags named with a protein.

Amino acid sequences for entries named in this document (tags omitted).
UniProt P04792: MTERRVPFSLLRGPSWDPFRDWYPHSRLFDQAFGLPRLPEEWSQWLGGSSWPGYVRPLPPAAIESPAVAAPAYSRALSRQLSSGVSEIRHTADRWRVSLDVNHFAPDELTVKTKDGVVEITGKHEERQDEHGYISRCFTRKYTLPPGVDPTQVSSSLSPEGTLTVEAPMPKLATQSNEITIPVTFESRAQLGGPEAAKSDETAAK

What was measured:
[1] = biological target: FLAG-tagged FAIM-S (Fas Apoptosis Inhibitory Molecule, short form) (human) (UniProt Q9NVQ4); test: proximity ligation; in situ PLA (Duolink) in FAIM-KO HeLa cells transfected with FLAG-tagged vectors; 43 °C for 30 min, DMSO or menadione 100 μM for 60 min; methanol-fixed; mouse anti-FLAG and goat anti-HSP27
[2] = biological target: FLAG-tagged FAIM-S (Fas Apoptosis Inhibitory Molecule, short form) (human) (UniProt Q9NVQ4); test: co-IP; FAIM-KO HeLa cells transfected with FLAG-FAIM-S, with or without menadione (100 μM) or heat shock (43 °C); RIPA lysate; anti-FLAG M2 magnetic beads, 4 °C, 2 h; eluted with 3 × FLAG peptide; Western blot for HSP proteins
[3] = biological target: FLAG-tagged FAIM-S (Fas Apoptosis Inhibitory Molecule, short form) expressed in HLE B-3 cells (human) (UniProt Q9NVQ4); test: co-IP; HLE B-3 cells, treated and harvested as the HeLa cells (FLAG-FAIM-S, cellular stress induction); anti-FLAG immunoprecipitation; Western blot for HSP27, αA- and αB-crystallin

“heat shock protein 27 (HSP27) (from UniProt P04792 1-205)” was tested, and the binding [1] was “binds” and the binding [2] was “binds”.

In the case of “heat shock protein 27 (HSP27) of HLE B-3 cells (from UniProt P04792 1-205)”, the binding [3] is reported as “binds”.
